Laboratory results from patent US20160221948A1, “NITROGEN-CONTAINING SATURATED HETEROCYCLIC COMPOUND” (SUMITOMO CHEMICAL COMPANY, LIMITED, priority 2013, published 2016).
Structures were worked out from names or drawings and are uncertain.

By UniProt entry, the sequences of proteins in these tests, tags left out.
UniProt P31391, whole entry: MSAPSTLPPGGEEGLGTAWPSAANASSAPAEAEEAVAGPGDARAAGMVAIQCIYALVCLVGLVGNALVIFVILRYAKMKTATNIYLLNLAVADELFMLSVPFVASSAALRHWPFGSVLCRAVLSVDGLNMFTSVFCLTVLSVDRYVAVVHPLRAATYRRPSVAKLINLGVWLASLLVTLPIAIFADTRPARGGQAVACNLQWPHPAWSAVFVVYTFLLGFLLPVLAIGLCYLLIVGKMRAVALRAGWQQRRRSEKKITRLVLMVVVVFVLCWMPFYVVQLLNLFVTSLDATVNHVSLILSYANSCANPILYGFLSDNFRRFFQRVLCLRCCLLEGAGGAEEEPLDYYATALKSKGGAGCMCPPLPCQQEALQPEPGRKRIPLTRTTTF

Target: human SSTR4 (Homo sapiens, UniProt P31391)
Experiment: Evaluation of agonist activities using human SSTR4-stably expressing cells (aequorin luminescence)
Type: cell-based
Settings: luminescence signal; 1 μmol/L somatostatin taken as 100%

## CN1CCC[C@H](C(=O)NC(C)(C)c2c(Cl)cccc2Cl)C1
  EC50: 6.4 nM
